Results reported in patent publication US12024506B2, “Compounds” (Oxford University Innovation Limited, priority 2018, dated 2024).
At least one structure is not confirmed: it was looked up by name or label, or the drawing left a doubt.

Molecular target: T1, GST-human KRas166 (G12V) GPPNHP (Homo sapiens, UniProt P01116, G12V)
T1 construct: made in house; host or cells: E. coli C41(DE3)
Experiment: KRas small-molecule screening by SPR (Biacore T200)
Type: binding
Conditions: compound 100 uM, 5% DMSO buffer; immobilised GST-KRas166 (G12V) GPPNHP
Protocol: For SPR assays pGEX-KRAS(G12V) plasmid was transformed into E. coli C41(DE3). Bacterial cells were cultured at 37° C. to an OD600 of 0.6 and induced with IPTG (final 0.1 mM) at 18° C. over night. The GST fusion proteins were extracted from bacteria pellets after cell disruption in 140 mM NaCl, 2.7 mM KCl, 10 mM NaH2PO4, 1.8 mM KH2PO4, 1 mM EDTA, 2 mM MgCl2 pH 7.4 and purified by glutathione-sepharose column chromatography (GE Healthcare), eluting with 50 mM Tris-HCl pH8.0, 10 mM reduced glutathione, 1 mM DTT, 2 mM MgCl2. The eluted proteins were dialysed against 50 mM Tris-HCl pH8.0, 1 mM DTT, 2 mM MgCl2 and concentrated to 10 mg/ml using a Biomax-30 ULTRAFREE-15 centrifugal filter device (Millipore). Purified KRAS protein was loaded with GPPNHP as described elsewhere (Pacold et al., 2000). Loaded protein was then purified by gel filtration on a HiLoad Superdex-75 HR column (GE Healthcare) in 1×PBS pH7.4, 5 mM MgCl2 and concentrated for storage.
Protocol for KRas Small-Molecule Screening and Affinity Measurements by SPR
To a previously immobilized CM5 chip (GE Healthcare BR-1005-30) with anti GST antibody via amine coupling method, GST in channel 1 and GST-human KRas166 (G12V) GPPNHP in channel 2 were immobilised. GST was immobilised between 2,000 and 5,000 Response units. KRAS166 (G12V) was immobilized between 10,000 to 15,000 Response Units.
In a 96 well plate, compounds were diluted in […], 5 mM MgCl2 and 5% DMSO Buffer to a final concentration of 100 uM. DCAl was used as positive control. Experiment also included a solvent correction curve for 5% DMSO. Screening and evaluation of the protein immobilization and the compounds screening was done accordingly to the BIACORE T200 control and evaluation software. […]

Going from `COc1cc(NC(=O)N2CCC(N)CC2)cc(-c2cccc3c2OCCO3)n1` [Example 24, 4-Amino-piperidine-1-carboxylic acid [2-(2,3-dihydro-benzo[1,4]dioxin-5-yl)-6-methoxy-pyridin-4-yl]-amide] to `COc1ccnc(-c2cccc3c2OC(CNC(=O)c2ccc(OCCN(C)C)cc2)CO3)c1` (stereo not drawn) [Example 105, 4-(2-Dimethylamino-ethoxy)-N-[8-(4-methoxy-pyridin-2-yl)-2,3-dihydro-benzo[1,4]dioxin-2-ylmethyl]-benzamide], the “SPR Response Units” value falls from 60 Response Units to 27 Response Units.

With `CN1CCN(Cc2ccc(C(=O)NCC3COc4cccc(-c5ccc(CN6CCOCC6)cc5)c4O3)o2)CC1` (stereo not drawn) [Example 108, 5-(4-Methyl-piperazin-1-ylmethyl)-furan-2-carboxylic acid [8-(4-morpholin-4-ylmethyl-phenyl)-2,3-dihydro-benzo[1,4]dioxin-2-ylmethyl]-amide] the “SPR Response Units” value was 26 Response Units.
